Laboratory results from publication doi:10.1101/2020.02.05.936237.
No constants are given. Whether binding was seen depends on the method and setting. In cells and extracts the contact can be indirect. These calls come from enrichment with a bait or labelling near it, and not all partners need be listed. Where a sequence is shown, tags or fusion partners need not be part of it. Blank lines part the entries; values can stand above or below the molecule they belong to.

By UniProt entry, the sequences of proteins in these tests, tags left out.
UniProt P40160: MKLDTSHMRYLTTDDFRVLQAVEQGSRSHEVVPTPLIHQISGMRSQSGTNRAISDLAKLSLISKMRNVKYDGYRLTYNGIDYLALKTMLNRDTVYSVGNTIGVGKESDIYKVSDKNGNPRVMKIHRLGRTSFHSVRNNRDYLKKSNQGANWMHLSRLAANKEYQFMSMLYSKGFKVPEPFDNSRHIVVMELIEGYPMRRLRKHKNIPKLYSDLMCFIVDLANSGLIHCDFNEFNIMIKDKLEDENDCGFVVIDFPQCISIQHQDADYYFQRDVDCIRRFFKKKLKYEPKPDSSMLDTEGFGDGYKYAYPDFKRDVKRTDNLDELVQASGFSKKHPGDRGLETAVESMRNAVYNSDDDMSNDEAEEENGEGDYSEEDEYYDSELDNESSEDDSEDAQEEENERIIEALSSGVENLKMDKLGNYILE

Target: T1, Enp1-TAP (Enp1 harboring a C-terminal Tandem Affinity Purification tag) (S. cerevisiae) (UniProt P38333)
T1 sequence: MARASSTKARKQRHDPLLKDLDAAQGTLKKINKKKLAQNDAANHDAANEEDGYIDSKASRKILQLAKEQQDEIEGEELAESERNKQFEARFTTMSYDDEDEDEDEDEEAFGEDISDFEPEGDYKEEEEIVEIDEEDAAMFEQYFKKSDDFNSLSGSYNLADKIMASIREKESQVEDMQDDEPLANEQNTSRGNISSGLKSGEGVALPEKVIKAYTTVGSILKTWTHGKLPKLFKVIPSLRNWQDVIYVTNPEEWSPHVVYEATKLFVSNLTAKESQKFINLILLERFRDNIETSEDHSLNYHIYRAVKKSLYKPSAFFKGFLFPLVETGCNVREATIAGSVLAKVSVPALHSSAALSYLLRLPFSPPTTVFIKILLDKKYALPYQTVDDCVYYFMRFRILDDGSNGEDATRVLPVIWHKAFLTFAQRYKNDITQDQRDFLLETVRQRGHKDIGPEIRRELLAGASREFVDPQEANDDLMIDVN
Test: affinity purification with mass spectrometry

- binding: binds
Molecule: Rio2 (from UniProt P40160 1-425)

- binding: binds
B1: Utp2 (endogenous) (protein, UniProt Q99207 1-810)
chain: MAGSQLKNLKAALKARGLTGQTNVKSKNKKNSKRQAKEYDREEKKKAIAEIREEFNPFEIKAARNKRRDGLPSKTADRIAVGKPGISKQIGEEQRKRAFEARKMMKNKRGGVIDKRFGERDKLLTEEEKMLERFTRERQSQSKRNANLFNLEDDEDDGDMFGDGLTHLGQSLSLEDELANDEEDFLASKRFNEDDAELQQPQRKKTKAEVMKEVIAKSKFYKQERQKAQGIMEDQIDNLDDNFEDVMSELMMTQPKKNPMEPKTDLDKEYDIKVKELQLDKRAAPSDRTKTEEEKNAEAEEKKRELEQQRLDRMNGMIELEEGEERGVEDLDDGFWENEEDYEDDNDGIADSDDDIKFEDQGRDEGFSQILKKKNISISCPRTHDALLDQVKKLDLDDHPKIVKNIIKAYQPKLAEGNKEKLGKFTAVLLRHIIFLSNQNYLKNVQSFKRTQNALISILKSLSEKYNRELSEECRDYINEMQARYKKNHFDALSNGDLVFFSIIGILFSTSDQYHLVITPALILMSQFLEQIKFNSLKRIAFGAVLVRIVSQYQRISKRYIPEVVYFFQKILLTFIVEKENQEKPLDFENIRLDSYELGLPLDVDFTKKRSTIIPLHTLSTMDTEAHPVDQCVSVLLNVMESLDATISTVWKSLPAFNEIILPIQQLLSAYTSKYSDFEKPRNILNKVEKLTKFTEHIPLALQNHKPVSIPTHAPKYEENFNPDKKSYDPDRTRSEINKMKAQLKKERKFTMKEIRKDAKFEARQRIEEKNKESSDYHAKMAHIVNTINTEEGAEKNKYERERKLRGGKK

- binding: binds
B2: Tsr1 (protein, UniProt Q07381 1-788)
chain: MAGHSHRSSLKNGHKSYKSKHASKGALKRLYKGKVEKEPVGTGKPDKQVSKLQRKNKAKQLRAQRILDSIENRKLFEGKNGAAKIITIVPLVNDLDPLDILYKLLKCADDEGIMVQEVDSKRIFNVHIKKFKSNLKIIIPDMTNFLNILDCAKVADFVVFGLSGVQEVDEEFGEQIIRALELQGIASYIGVISNLSAVHEKEKFQLDVKQSLESYFKHFFPSEERVYNLEKNSDALNVLRTLCQRLPRSINWRDNRGYVVADFVDFVETSPDSGDLVIEGTVRGIGFNANRLVHIPDFGDFQLNKIEKISESSQKRKIIKEKATDSLSLELDLQTVFESNMNRDTLDEYAPEGTEDWSDYDEDFEYDGLTTARYDDHGFLPGREQTSKKAAVPKGTSDYQAKWYLDDVIDANEEEEAEQTNGKDETMMEIDDEMMVEQDNEEVAGDEEYDIEDNEGFEELSPEEEERQLREFRDMEKEDREFPDEIELEPSESAIERLKRYRGLKNLYNCDWQVDEKDPSSPAEWKRLLRIGNYKNTKNRIIKETKNEAQAIAGDRIRMFIRFPKFLLEKIQDPKQLLFAVYGLLLHEHKNAVVNFSLQRWEQYDKPVPSQEPIVVQYGVRRYTIQPLFSQGSNSPNNVHKYERFLHPDTVSVATCIAPVDFTQSPAIFFKPSPTDAKNIELIGHGTFLNADHSRILAKRAILTGHPFRFHKTVVTVRYMFFRPEDVEWFKSIPLFTKSGRSGFIKESLGTHGYFKATFDGKLSAQDVVAMSLYKRMWPMPSLPWNGM

- binding: binds
B3: Rrp12 (protein, UniProt Q12754 1-1228)
chain: MDQDKVAFLLELEDKLAKIRSQVNSKLENQKHIAIILTAVEENIAGQATNDVSKNIVNYIISFMSLLDQAVDPSTHEIKDIQLASSSTYLLDLIFHYSPKVLLRSKFSEILTKIAPCITAEKANAPLIRAAIGCLESLLIAQDAQAWNNTYDLNVTPKRGLQGILELSLDVRPKVRKRALDAVHAVLLNPPVAPTAEHVAAVFVADFCDKQLAGILNDLSNLSNKQLKAQKTKEDINASVMRSLRLITSVVSTGQWPSSQIEPLCDVLLGVTKSSEQYLVSASFECFESMFKTMAETTISSGLAENKYLRVLDTIFALKPSNVDTLLTKSWIAVVIKGMSTYATHQPLKALRKIPGVFHIMCTYLASETPEVYQAASQCLISILSESVKDDLLLYTPSVDEKVFKNVDEIISQIAKTFIDFLSIRYSHCSREILKILVAAFNKFRYRSNPHFLKSLKIVDTWRVNEEQFMDLRNEIELVIGASISAMGPEMILAEAPLNLDNPSSERPGRAWLLPLIRDYTKNANLATFQNELAPYIKSFQSKFDKVPEESIQLRVFQTIVDQIWSTLPRFCELPMDLRESFTDEFASELSSLLYSEVELRTTICHALKVLAESNVSYAEESSSHNVLLLQRFPISEAQKNIEYLSTKSTNLLAVLFNVYTQTTPNARSYILETIDQYLKITSKEDLEKTFNNVCGLLKNSMNEESSGNVNKEKKKPQLTATLLDLIICMITYLPVSSYSALFSMFSLTVNSADALIQKRAYRIITKLSELKSGSTAVAQFISDIENVMVDSASSVQTSAKAARLTAIKTIVELLPLDHLDFIVRTVAEVILSTKDVNEKSRETAFDTLICMGRKMNEPNGIIKLFQIPGYDPTTPDQSSSISEFFKIISAGLIGESQHMVSSSITGYACLVFEFKNELDSGILMDIYDTIELYLTSNSREIVKSAIGFTKVCVLGLPEELMRPKVPELLLKLLRWSHEHTGHFKAKVKHIIERLIRRFGYDYIEANFPEEDRRLLTNIRKMRNRNKRKDEEVTTGVSDVAATKGSRFMSAFDEAVYGSDEENDNGSDQEENVAGGKMKNGAKQFIVESGDNPLDLLDSQTLAHISSTRPKKFNKNQNRARFNDDAFNFDSEGKLVVKGQPKPSTNVDDPLSAVTSGINAYLEAVKSGPVRGQRNKLKFRKNGKDSDEFGDDDDGEKDSRLMRGRVNQGNKIGKHNKKGPKFKSRKKL

- binding: binds
B4: Lcp5 (protein, UniProt P40079 1-357)
chain: MSELNALLKDINGSLTATSESLERLSGIYSNSATDEIPESNQLHEHLFYDAKKPAEKVSLLSLKNGSMLGYINSLLMLIGNRLDDECKDPSAMDARERSIQHRVVLERGVKPLEKKLAYQLDKLTRAYVKMEKEYKDAEKRALEKSTLVNHSGNDDSEDDESSEDEIAYRPNTSGIINTNKKSSAYRVEETAKQENGEENDDNETGVYKPPKITAVLPPQQTHFEDRFDAREHKDRSNKSRMQAMEEYIRESSDQPDWSASIGADIVNHGRGGIKSLRDTEKERRVTSFEEDNFTRLNITNKAEKRKQKQRERNARMNVIGGEDFGIFSSKRKLEDSTSRRGAKKTRSAWDRAQRRL

- binding: binds
B5: Bfr2 (protein, UniProt Q06631 1-534)
chain: MEKSLADQISDIAIKPVNKDFDIEDEENASLFQHNEKNGESDLSDYGNSNTEETKKAHYLEVEKSKLRAEKGLELNDPKYTGVKGSRQALYEEVSENEDEEEEEEEEEEKEEDALSFRTDSEDEEVEIDEEESDADGGETEEAQQKRHALSKLIQQETKQAINKLSQSVQRDASKGYSILQQTKLFDNIIDLRIKLQKAVIAANKLPLTTESWEEAKMDDSEETKRLLKENEKLFNNLFNRLINFRIKFQLGDHITQNEEVAKHKLSKKRSLKELYQETNSLDSELKEYRTAVLNKWSTKVSSASGNAALSSNKFKAINLPADVQVENQLSDMSRLMKRTKLNRRNITPLYFQKDCANGRLPELISPVVKDSVDDNENSDDGLDIPKNYDPRRKDNNAIDITENPYVFDDEDFYRVLLNDLIDKKISNAHNSESAAITITSTNARSNNKLKKNIDTKASKGRKLNYSVQDPIANYEAPITSGYKWSDDQIDEFFAGLLGQRVNFNENEDEEQHARIENDEELEAVKNDDIQIFG

- binding: binds
B6: Nob1 (protein, UniProt Q08444 1-459)
chain: MTENQTAHVRALILDATPLITQSYTHYQNYAQSFYTTPTVFQEIKDAQARKNLEIWQSLGTLKLVHPSENSIAKVSTFAKLTGDYSVLSANDLHILALTYELEIKLNNGDWRLRKKPGDALDASKADVGTDGKQKLTEDNKKEEDSESVPKKKNKRRGGKKQKAKREAREAREAENANLELESKAEEHVEEAGSKEQICNDENIKESSDLNEVFEDADDDGDWITPENLTEAIIKDSGEDTTGSLGVEASEEDRHVALNRPENQVALATGDFAVQNVALQMNLNLMNFMSGLKIKRIRNYMLRCHACFKIFPLPKDGKPKHFCASCGGQGTLLRCAVSVDSRTGNVTPHLKSNFQWNNRGNRYSVASPLSKNSQKRYGKKGHVHSKPQENVILREDQKEYEKVIKQEEWTRRHNEKILNNWIGGGSADNYISPFAITGLKQHNVRIGKGRYVNSSKRRS

- binding: binds
B7: Noc4 (protein, UniProt Q06512 1-552)
chain: MVLLISEIKDIAKRLTAAGDRKQYNSIIKLINELVIPENVTQLEEDETEKNLRFLVMSLFQIFRKLFSRGDLTLPSSKKSTLEKEQFVNWCRKVYEAFKTKLLAIISDIPFETSLGLDSLDVYLQLAELESTHFASEKGAPFFPNKTFRKLIIALWSSNMGEIEDVKSSGASENLIIVEFTEKYYTKFADIQYYFQSEFNQLLEDPAYQDLLLKNVGKWLALVNHDKHCSSVDADLEIFVPNPPQAIENESKFKSNFEKNWLSLLNGQLSLQQYKSILLILHKRIIPHFHTPTKLMDFLTDSYNLQSSNKNAGVVPILALNGLFELMKRFNLEYPNFYMKLYQIINPDLMHVKYRARFFRLMDVFLSSTHLSAHLVASFIKKLARLTLESPPSAIVTVIPFIYNLIRKHPNCMIMLHNPAFISNPFQTPDQVANLKTLKENYVDPFDVHESDPELTHALDSSLWELASLMEHYHPNVATLAKIFAQPFKKLSYNMEDFLDWNYDSLLNAESSRKLKTLPTLEFEAFTNVFDNEDGDSEASSQGNVYLPGVAW
